Data reported in patent US5004780A, “Cyclic monoperoxyketal” (priority 1988, dated 1991).
Some values come without a unit; they compare only within their column.

How the values were obtained:
[1] = Polymerization of styrene at 80° C. with peroxyketal as initiator; settings: 10% conversion; for Molecular weight Mn / Molecular weight Mw: polymer, GPC
[2] = Production of acrylic resin with peroxyketal as initiator; settings: GPC, 0.03 mol equivalent active oxygen, 125° C.; for Molecular weight Mn: polystyrene standard
[3] = Curing of unsaturated polyester resin at 80° C. (JIS K6901); settings: for Curing time / Gelation time: 80° C.; for Peak exothermic temperature: thermostat at 80° C.
[4] = Pot-life at 40° C. of unsaturated polyester resin containing the catalyst; settings: visual observation

| Structure (SMILES) | Polymerization rate ([1]; initiator 0.01 mol/l) | Polymerization rate ([1]; initiator 2.0 g/l) | Molecular weight Mn ([1]; initiator 0.01 mol/l) | Molecular weight Mw ([1]; initiator 0.01 mol/l) | Molecular weight Mn ([1]; initiator 2.0 g/l) | Molecular weight Mw ([1]; initiator 2.0 g/l) | Molecular weight Mw/Mn [2] | Molecular weight Mn [2] | Curing time [3] [min] | Gelation time [3] [min] | Peak exothermic temperature [3] [°C] | Pot-life [4] [h] |
| --- | --- | --- | --- | --- | --- | --- | --- | --- | --- | --- | --- | --- |
| CCCC(C)(C)OOC1(OC)CCCCC1 [Example 9, 1-methoxy-1-(1,1-dimethylbutylperoxy)cyclohexane] | 12.18 ×10^5 (mol/l/s) | 11.35 ×10^5 (mol/l/s) | 14.2 ×10^-4 | 24.7 ×10^-4 | 15.2 ×10^-4 | 26.3 ×10^-4 | 2.1 | 3,600 | 11.5 | 9.3 | 199 | 20 |
| COC1(OOC(C)(C)CC(C)(C)C)CCCCC1 [Example 10, 1-methoxy-1-(1,1,3,3-tetramethylbutylperoxy)cyclohexane] | 19.39 ×10^5 (mol/l/s) | 17.01 ×10^5 (mol/l/s) | 9.1 ×10^-4 | 14.8 ×10^-4 | 10.4 ×10^-4 | 17.1 ×10^-4 | – | – | 6.3 | 5.2 | 204 | 17 |
| CCCC(C)(C)OOC1(OOC(C)(C)CCC)CCCCC1 [compound 3, 1,1-bis(1,1-dimethylbutylperoxy)cyclohexane, reference compound] | 11.59 ×10^5 (mol/l/s) | 9.21 ×10^5 (mol/l/s) | 15.5 ×10^-4 | 26.1 ×10^-4 | 19.5 ×10^-4 | 32.8 ×10^-4 | 3.1 | 4,700 | 24.0 | 20.6 | 188 | 69 |
| COC1(OOC(C)(C)C)CCCCC1 [Example 7, 1-methoxy-1-(1,1-dimethylethylperoxy)cyclohexane] | 9.56 ×10^5 (mol/l/s) | 9.51 ×10^5 (mol/l/s) | 15.9 ×10^-4 | 30.6 ×10^-4 | 16.0 ×10^-4 | 30.4 ×10^-4 | 2.8 | 4,100 | 16.6 | 13.3 | 191 | 22 |
| CCCC(C)(C)OOC1(OC)CC(C)CC(C)(C)C1 (stereo not drawn) [Example 12, 1-methoxy-1-(1,1-dimethylbutylperoxy)-3,3,5-trimethylcyclohexane] | 11.60 ×10^5 (mol/l/s) | 8.67 ×10^5 (mol/l/s) | 15.6 ×10^-4 | 26.0 ×10^-4 | 20.9 ×10^-4 | 34.8 ×10^-4 | – | – | 11.7 | 9.5 | 195 | 21 |
| CCCC(C)(C)OOC1(OOC(C)(C)CCC)CC(C)CC(C)(C)C1 (stereo not drawn) [compound 6, 1,1-bis(1,1-dimethylbutylperoxy)-3,3,5-trimethylcyclohexane, reference compound] | 11.60 ×10^5 (mol/l/s) | 8.67 ×10^5 (mol/l/s) | 15.6 ×10^-4 | 26.0 ×10^-4 | 20.9 ×10^-4 | 34.8 ×10^-4 | – | – | 24.1 | 20.5 | 187 | 68 |
| CCC(C)(C)OOC1(OC)CCCCC1 [Example 8, 1-methoxy-1-(1,1-dimethylpropylperoxy)cyclohexane] | 11.93 ×10^5 (mol/l/s) | 11.47 ×10^5 (mol/l/s) | 14.5 ×10^-4 | 26.8 ×10^-4 | 15.1 ×10^-4 | 27.0 ×10^-4 | – | – | 11.7 | 9.4 | 200 | 20 |
| COC1(OOC(C)(C)c2ccccc2)CCCCC1 [Example 11, 1-methoxy-1-(1-methyl-1-phenylethylperoxy)cyclohexane] | 12.61 ×10^5 (mol/l/s) | 10.97 ×10^5 (mol/l/s) | 13.3 ×10^-4 | 23.6 ×10^-4 | 15.3 ×10^-4 | 27.1 ×10^-4 | – | – | 15.4 | 12.8 | 198 | 24 |
| CCC(C)(C)OOC1(OOC(C)(C)CC)CCCCC1 [compound 2, 1,1-bis(1,1-dimethylpropylperoxy)cyclohexane, reference compound] | 10.97 ×10^5 (mol/l/s) | 9.13 ×10^5 (mol/l/s) | 1.64 ×10^-4 | 27.9 ×10^-4 | 19.7 ×10^-4 | 33.5 ×10^-4 | – | – | 22.8 | 19.8 | 191 | 67 |
| CC(C)(C)CC(C)(C)OOC1(OOC(C)(C)CC(C)(C)C)CCCCC1 [compound 4, 1,1-bis(1,1,3,3-tetramethylbutylperoxy)cyclohexane, reference compound] | 18.43 ×10^5 (mol/l/s) | 13.50 ×10^5 (mol/l/s) | 10.2 ×10^-4 | 16.4 ×10^-4 | 13.9 ×10^-4 | 22.4 ×10^-4 | – | – | 13.3 | 11.2 | 201 | 41 |
| CC(C)(OOC1(OOC(C)(C)c2ccccc2)CCCCC1)c1ccccc1 [compound 5, 1,1-bis(1-methyl-1-phenylethylperoxy)cyclohexane, reference compound] | 12.03 ×10^5 (mol/l/s) | 8.68 ×10^5 (mol/l/s) | 14.9 ×10^-4 | 24.9 ×10^-4 | 20.7 ×10^-4 | 34.6 ×10^-4 | – | – | 28.9 | 25.3 | 185 | 63 |
| CC(C)(C)OOC1(OOC(C)(C)C)CCCCC1 [Comparative example 1, 1,1-bis(1,1-dimethylethylperoxy)cyclohexane, reference compound] | 9.12 ×10^5 (mol/l/s) | 7.99 ×10^5 (mol/l/s) | 17.9 ×10^-4 | 32.3 ×10^-4 | 20.4 ×10^-4 | 36.8 ×10^-4 | 4.1 | 5,400 | 32.9 | 28.5 | 182 | 69 |
| CC(C)(C)OOC(=O)c1ccccc1 [compound 28, 1,1-dimethylethyl peroxybenzoate] | – | – | – | – | – | – | – | – | 43.0 | 30.8 | 139 | 15 |
